According to article PMC11257846:
These are yes or no findings as the source states them, for the method shown. Binding seen in cells or lysates may run through a third protein. Some entries that bind do so weakly or less than the wild type. Where a sequence is shown, tags or fusion partners need not be part of it.

Protein sequences, listed by entry. Tags and fused reporters are not part of them.
UniProt Q7Z434: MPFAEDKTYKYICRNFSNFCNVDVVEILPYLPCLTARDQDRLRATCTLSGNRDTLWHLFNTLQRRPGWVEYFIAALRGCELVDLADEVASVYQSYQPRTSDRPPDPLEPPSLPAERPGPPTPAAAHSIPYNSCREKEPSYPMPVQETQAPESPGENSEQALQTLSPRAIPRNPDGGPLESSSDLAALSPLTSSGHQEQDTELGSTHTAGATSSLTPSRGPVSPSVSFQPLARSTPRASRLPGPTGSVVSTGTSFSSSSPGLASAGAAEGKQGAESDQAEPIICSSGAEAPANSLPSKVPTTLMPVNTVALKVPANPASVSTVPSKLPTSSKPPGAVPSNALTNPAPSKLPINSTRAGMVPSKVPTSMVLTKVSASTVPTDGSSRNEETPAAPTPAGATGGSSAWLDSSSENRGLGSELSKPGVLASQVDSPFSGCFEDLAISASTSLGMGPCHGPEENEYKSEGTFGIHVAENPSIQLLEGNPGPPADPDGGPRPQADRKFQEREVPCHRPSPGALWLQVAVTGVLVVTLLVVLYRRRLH

What was measured:
[1] = biological target: T1, HDAC8-HA (histone deacetylase 8) (UniProt Q9BY41); assay: co-IP
T1 sequence: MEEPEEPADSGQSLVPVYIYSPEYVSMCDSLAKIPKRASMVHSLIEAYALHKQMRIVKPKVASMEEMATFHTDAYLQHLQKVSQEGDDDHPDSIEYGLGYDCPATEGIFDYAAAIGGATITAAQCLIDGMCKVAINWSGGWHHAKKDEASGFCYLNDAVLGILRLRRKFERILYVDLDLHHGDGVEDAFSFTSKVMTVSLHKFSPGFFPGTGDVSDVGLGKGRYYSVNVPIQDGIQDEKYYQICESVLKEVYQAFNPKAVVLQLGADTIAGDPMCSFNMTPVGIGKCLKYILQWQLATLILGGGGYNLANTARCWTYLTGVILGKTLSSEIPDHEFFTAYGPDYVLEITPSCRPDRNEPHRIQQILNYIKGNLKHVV

[2] = biological target: T1, HDAC8-HA (histone deacetylase 8); assay: co-IP; HEK293T cells co-transfected with the indicated plasmids for 24 h, lysed; anti-FLAG, anti-MYC or anti-HA antibody with GammaBind G Plus-Sepharose overnight at 4°C; precipitates analysed by western blot
[3] = biological target: T2, HDAC8-MYC (histone deacetylase 8) (UniProt Q9BY41); assay: as above
T2 sequence: T1 sequence

[4] = biological target: T3, RIG-I-FLAG (retinoic acid-inducible gene I) (UniProt O95786); assay: as above
T3 sequence: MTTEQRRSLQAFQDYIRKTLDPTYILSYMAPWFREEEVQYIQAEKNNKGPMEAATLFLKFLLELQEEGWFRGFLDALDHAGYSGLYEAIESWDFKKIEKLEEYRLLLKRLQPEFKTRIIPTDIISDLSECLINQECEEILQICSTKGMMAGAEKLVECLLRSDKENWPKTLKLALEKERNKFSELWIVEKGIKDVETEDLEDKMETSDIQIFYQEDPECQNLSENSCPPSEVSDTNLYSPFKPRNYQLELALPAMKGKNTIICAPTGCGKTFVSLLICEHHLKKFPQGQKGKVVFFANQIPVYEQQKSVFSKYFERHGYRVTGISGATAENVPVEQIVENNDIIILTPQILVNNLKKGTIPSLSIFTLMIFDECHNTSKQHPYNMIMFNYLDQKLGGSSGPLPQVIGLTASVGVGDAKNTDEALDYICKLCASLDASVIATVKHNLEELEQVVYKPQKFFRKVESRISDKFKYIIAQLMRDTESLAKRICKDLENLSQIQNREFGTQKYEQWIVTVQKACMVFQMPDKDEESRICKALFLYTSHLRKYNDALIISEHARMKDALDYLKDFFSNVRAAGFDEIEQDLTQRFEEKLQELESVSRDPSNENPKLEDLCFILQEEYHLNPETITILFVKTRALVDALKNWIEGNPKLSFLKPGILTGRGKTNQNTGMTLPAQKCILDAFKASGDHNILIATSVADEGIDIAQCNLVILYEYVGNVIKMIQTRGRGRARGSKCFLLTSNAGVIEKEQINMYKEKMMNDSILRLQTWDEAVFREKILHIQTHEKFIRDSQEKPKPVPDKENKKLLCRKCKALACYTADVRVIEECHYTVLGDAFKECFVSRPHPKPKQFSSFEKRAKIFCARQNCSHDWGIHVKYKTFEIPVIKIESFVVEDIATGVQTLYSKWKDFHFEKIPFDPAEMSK

For “MAVS-MYC (mitochondria antiviral signaling protein) (from UniProt Q7Z434 1-540)”, the binding [1] was “no binding”.

B1: MDA5-FLAG (melanoma differentiation-associated factor 5) (protein, UniProt Q9BYX4 1-1025)
chain: MSNGYSTDENFRYLISCFRARVKMYIQVEPVLDYLTFLPAEVKEQIQRTVATSGNMQAVELLLSTLEKGVWHLGWTREFVEALRRTGSPLAARYMNPELTDLPSPSFENAHDEYLQLLNLLQPTLVDKLLVRDVLDKCMEEELLTIEDRNRIAAAENNGNESGVRELLKRIVQKENWFSAFLNVLRQTGNNELVQELTGSDCSESNAEIENLSQVDGPQVEEQLLSTTVQPNLEKEVWGMENNSSESSFADSSVVSESDTSLAEGSVSCLDESLGHNSNMGSDSGTMGSDSDEENVAARASPEPELQLRPYQMEVAQPALEGKNIIICLPTGSGKTRVAVYIAKDHLDKKKKASEPGKVIVLVNKVLLVEQLFRKEFQPFLKKWYRVIGLSGDTQLKISFPEVVKSCDIIISTAQILENSLLNLENGEDAGVQLSDFSLIIIDECHHTNKEAVYNNIMRHYLMQKLKNNRLKKENKPVIPLPQILGLTASPGVGGATKQAKAEEHILKLCANLDAFTIKTVKENLDQLKNQIQEPCKKFAIADATREDPFKEKLLEIMTRIQTYCQMSPMSDFGTQPYEQWAIQMEKKAAKEGNRKERVCAEHLRKYNEALQINDTIRMIDAYTHLETFYNEEKDKKFAVIEDDSDEGGDDEYCDGDEDEDDLKKPLKLDETDRFLMTLFFENNKMLKRLAENPEYENEKLTKLRNTIMEQYTRTEESARGIIFTKTRQSAYALSQWITENEKFAEVGVKAHHLIGAGHSSEFKPMTQNEQKEVISKFRTGKINLLIATTVAEEGLDIKECNIVIRYGLVTNEIAMVQARGRARADESTYVLVAHSGSGVIEHETVNDFREKMMYKAIHCVQNMKPEEYAHKILELQMQSIMEKKMKTKRNIAKHYKNNPSLITFLCKNCSVLACSGEDIHVIEKMHHVNMTPEFKELYIVRENKALQKKCADYQINGEIICKCGQAWGTMMVHKGLDLPCLKIRNFVVVFKNNSTKKQYKKWVELPITFPNLDYSECCLFSDED
For B1, the binding [2] was “no binding”.

B2: TBK1-FLAG (enzyme, UniProt Q9UHD2 1-729)
chain: MQSTSNHLWLLSDILGQGATANVFRGRHKKTGDLFAIKVFNNISFLRPVDVQMREFEVLKKLNHKNIVKLFAIEEETTTRHKVLIMEFCPCGSLYTVLEEPSNAYGLPESEFLIVLRDVVGGMNHLRENGIVHRDIKPGNIMRVIGEDGQSVYKLTDFGAARELEDDEQFVSLYGTEEYLHPDMYERAVLRKDHQKKYGATVDLWSIGVTFYHAATGSLPFRPFEGPRRNKEVMYKIITGKPSGAISGVQKAENGPIDWSGDMPVSCSLSRGLQVLLTPVLANILEADQEKCWGFDQFFAETSDILHRMVIHVFSLQQMTAHKIYIHSYNTATIFHELVYKQTKIISSNQELIYEGRRLVLEPGRLAQHFPKTTEENPIFVVSREPLNTIGLIYEKISLPKVHPRYDLDGDASMAKAITGVVCYACRIASTLLLYQELMRKGIRWLIELIKDDYNETVHKKTEVVITLDFCIRNIEKTVKVYEKLMKINLEAAELGEISDIHTKLLRLSSSQGTIETSLQDIDSRLSPGGSLADAWAHQEGTHPKDRNVEKLQVLLNCMTEIYYQFKKDKAERRLAYNEEQIHKFDKQKLYYHATKAMTHFTDECVKKYEAFLNKSEEWIRKMLHLRKQLLSLTNQCFDIEEEVSKYQEYTNELQETLPQKMFTASSGIKHTMTPIYPSSNTLVEMTLGMKKLKEEMEGVVKELAENNHILERFGSLTMDGGLRNVDCL
In the case of B2, the binding [2] is reported as “no binding”.

B3: RIG-I-FLAG (retinoic acid-inducible gene I) (protein, UniProt O95786 1-925)
chain: T3 sequence
With B3 the binding [3] was “binds”.

B4: HDAC8-MYC (histone deacetylase 8) (enzyme, UniProt Q9BY41 1-377)
chain: T1 sequence
B4 was tested, and the binding [4] was “binds”.
